Record: PubChem BioAssay AID504764 (Drosophila RNAi Screening Center, 2011)

- Purpose: 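Genes whose knock-down alters Notch-dependent transcription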 (primary screen)
- Cell system: Drosophila Kc167 cells
- Knock-down reagent: long dsRNA against Drosophila genes
- Timing: about 5 days (4 days dsRNA, then 24 h after transfection)
- Conditions: transfection of constitutively active membrane-tethered Notch lacking the extracellular domain, read 24 h later
- Measurement: 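Firefly luciferase from an E(spl)m3 reporter with active Notch, plus control-promoter and uninduced reporter wells for normalisation; unnormalised counts, duplicate wells a and b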
- Reading the numbers: induced reporter light, run 1, well a and induced reporter light, run 1, well b: higher = more light from the Notch target reporter with active Notch; control promoter light, run 1, well a and control promoter light, run 1, well b: higher = more light from the viral control promoter (cell number, transfection, viability); uninduced reporter light, run 1, well a: higher = more light from the Notch target reporter without active Notch
- Rule for the call: 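Hit if the duplicate-averaged log2 ratio of induced to control-promoter light gives a plate-wise z beyond ±2, or induced to uninduced beyond ±1.8; weak-control or discordant-duplicate wells dropped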
- Calls: active = modifier hit (raised or lowered Notch signal); inactive = not a hit
In all, the deposit lists about 22,000 reagents; this is a random part of those that have a named target and a result. Over the whole deposit, 403 (1.9%) were called active. 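Unnormalised raw counts per well; ratio z-scores behind the hit calls and whether each hit raises or lowers signal are not deposited.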 A number with no mark means an inactive call. Names joined by + are all predicted targets of the reagent. Reagent sequences are not shown. The record does not give: the amount of reagent.

Silencing of Ufsp1 [DRSC04958] resulted in: induced reporter light, run 1, well a = 73235; induced reporter light, run 1, well b = 84880; control promoter light, run 1, well a = 1.13e5; control promoter light, run 1, well b = 1.15e5; uninduced reporter light, run 1, well a = 4038. After knock-down of tipE [DRSC08738], the record shows induced reporter light, run 1, well a = 1.62e5; induced reporter light, run 1, well b = 1.84e5; control promoter light, run 1, well a = 1.20e5; control promoter light, run 1, well b = 51100; uninduced reporter light, run 1, well a = 11135. After knock-down of CG5535 [DRSC10514], the record shows induced reporter light, run 1, well a = 1.29e5; induced reporter light, run 1, well b = 1.22e5; control promoter light, run 1, well a = 79265; control promoter light, run 1, well b = 68165; uninduced reporter light, run 1, well a = 9505. CG18278 + CG30059 [DRSC05418] showed induced reporter light, run 1, well a = 1.94e5; induced reporter light, run 1, well b = 2.40e5; control promoter light, run 1, well a = 3.06e5; control promoter light, run 1, well b = 2.76e5; uninduced reporter light, run 1, well a = 18738. Knock-down of CG1275 [DRSC08294] came out at: induced reporter light, run 1, well a = 65640; induced reporter light, run 1, well b = 55505; control promoter light, run 1, well a = 87635; control promoter light, run 1, well b = 70150; uninduced reporter light, run 1, well a = 4345. Against CG12985 [DRSC19505], the values are induced reporter light, run 1, well a = 29425; induced reporter light, run 1, well b = 20385; control promoter light, run 1, well a = 20970; control promoter light, run 1, well b = 19805; uninduced reporter light, run 1, well a = 2860.

2 entries already listed, arranged by “uninduced reporter light, run 1, well a”, high to low.
CG1275 [DRSC08294] | induced reporter light, run 1, well a = 65640; induced reporter light, run 1, well b = 55505; control promoter light, run 1, well a = 87635; control promoter light, run 1, well b = 70150; uninduced reporter light, run 1, well a = 4345
CG12985 [DRSC19505] | induced reporter light, run 1, well a = 29425; induced reporter light, run 1, well b = 20385; control promoter light, run 1, well a = 20970; control promoter light, run 1, well b = 19805; uninduced reporter light, run 1, well a = 2860

Further results follow:
After knock-down of Xbp1 [DRSC04553] the results were induced reporter light, run 1, well a = 1.65e5; induced reporter light, run 1, well b = 1.46e5; control promoter light, run 1, well a = 2.36e5; control promoter light, run 1, well b = 2.56e5; uninduced reporter light, run 1, well a = 11965. For Dhc36C [DRSC03315] the deposit lists induced reporter light, run 1, well a = 1.04e5; induced reporter light, run 1, well b = 1.36e5; control promoter light, run 1, well a = 1.14e5; control promoter light, run 1, well b = 1.36e5; uninduced reporter light, run 1, well a = 10450. After knock-down of Nost [DRSC18037] the results were induced reporter light, run 1, well a = 1.23e5; induced reporter light, run 1, well b = 1.24e5; control promoter light, run 1, well a = 1.71e5; control promoter light, run 1, well b = 1.69e5; uninduced reporter light, run 1, well a = 10465. Against Nost [DRSC18338] the deposit lists induced reporter light, run 1, well a = 1.25e5; induced reporter light, run 1, well b = 1.38e5; control promoter light, run 1, well a = 2.07e5; control promoter light, run 1, well b = 1.65e5; uninduced reporter light, run 1, well a = 9970. After knock-down of Rrp40 [DRSC00074], the record shows induced reporter light, run 1, well a = 94005; induced reporter light, run 1, well b = 89630; control promoter light, run 1, well a = 1.57e5; control promoter light, run 1, well b = 1.53e5; uninduced reporter light, run 1, well a = 10185. Knock-down of Mnt [DRSC17894] gave: induced reporter light, run 1, well a = 1.00e5; induced reporter light, run 1, well b = 1.19e5; control promoter light, run 1, well a = 1.24e5; control promoter light, run 1, well b = 1.14e5; uninduced reporter light, run 1, well a = 10975.

Mnt [DRSC18480] showed induced reporter light, run 1, well a = 1.69e5; induced reporter light, run 1, well b = 1.56e5; control promoter light, run 1, well a = 3.20e5; control promoter light, run 1, well b = 2.70e5; uninduced reporter light, run 1, well a = 12282.
